# According to the supplement of paper PMC10735217:
# The other results are listed elsewhere or left out. Single values are uncertain here, since repeats match poorly.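 In a drug-repurposing library screen, luminescence reads luciferase driven by eight TEAD-binding elements, stably integrated into human kidney-derived cells. Compounds scoring over five robust Z scores above the plate mean are called hits.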
# System: HEK293A TEAD-LUC reporter
# Assay: TEAD-luciferase reporter activity (YAP activation), robust Z score vs plate; higher = stronger YAP/TEAD activation
# Conditions: 24 h
Structure (SMILES),TEAD-luciferase reporter activity (compound concentration: 200 nM),TEAD-luciferase reporter activity (compound concentration: 2 uM),TEAD-luciferase reporter activity (compound concentration: 10 uM)
CCN(CC)CCN=S(=O)(c1ccccc1)c1ccccc1,inactive: -1.38,inactive: -0.828,active: 6.33
O=C(N/C=C(/c1ccccc1)c1cccs1)c1sc2ccc(C(F)(F)F)cc2c1O,inactive: 2.86,inactive: -0.0602,inactive: 2.23
CC(C(=O)O)c1ccc(N2CC=CC2)c(Cl)c1 (stereo unspecified) [pirprofen],inactive: -1.12,inactive: -1.46,inactive: -0.364
CCCN(CCC)C(=O)C(Cc1ccc(OCCCN2CCN(C)CC2)cc1)NC(=O)c1ccc(F)cc1 (stereo unspecified),inactive: 0.826,inactive: -0.257,inactive: -0.453
CC(=O)NC[C@H]1CN(c2ccc(N3Cc4cccnc4C3)c(F)c2)C(=O)O1,inactive: -0.133,inactive: 0.776,inactive: 3.38
CC(C)C[C@H](NC(=O)CNC(=O)[C@H](Cc1ccc(O)cc1)NC(=O)[C@H](CO)NC(=O)[C@H](Cc1c[nH]c2ccccc12)NC(=O)[C@H](Cc1c[nH]cn1)NC(=O)[C@@H]1CCC(=O)N1)C(=O)N[C@@H](CCCNC(=N)N)C(=O)N1CCC[C@H]1C(=O)NCC(N)=O [Gonadorelin],inactive: -2.14,inactive: 1.04,active: 6.23
CN(C)CCNC(=O)COc1c2cccc1Cc1cccc(c1OCC(=O)NCCN(C)C)Cc1cccc(c1OCC(=O)NCCN(C)C)Cc1cccc(c1OCC(=O)NCCN(C)C)C2,inactive: 1.69,inactive: -0.304,inactive: -0.589
C[C@H](N[C@@H](CCc1ccccc1)C(=O)O)C(=O)N1CCC[C@H]1C(=O)O [enalaprilat],,inactive: 1.15,
C[C@H](N[C@@H](CCc1ccccc1)C(=O)O)C(=O)N1CCC[C@H]1C(=O)O,inactive: -0.143,,inactive: 1.1
Cc1ccccc1-c1nc(N2CCCCC2)ncc1N(C)C(=O)C(C)(C)c1cc(C(F)(F)F)cc(C(F)(F)F)c1,inactive: 0.313,inactive: 1.67,inactive: 0.132
Cc1cc(CCCOc2c(C)cc(-c3noc(C(F)(F)F)n3)cc2C)on1 [pleconaril],inactive: -1.16,inactive: 0.582,inactive: -2.1
O=C(CCCN1CC=C(n2c(O)nc3ccccc32)CC1)c1ccc(F)cc1,inactive: -2.27,,inactive: -0.072
"O=C(CCCN1CC=C(n2c(O)nc3ccccc32)CC1)c1ccc(F)cc1 [droperidol, Anesta]",,inactive: -1.51,
CC1=CCN(C(=O)[C@H](Cc2ccc(C(=N)N)cc2)NS(=O)(=O)c2ccc3c(c2)CN(C)CC3)[C@@H](C(=O)O)C1,inactive: -0.729,inactive: -2.39,inactive: -1.4

# An excerpt of these results, with bars between the fields.
Structure (SMILES) | TEAD-luciferase reporter activity (compound concentration: 200 nM) | TEAD-luciferase reporter activity (compound concentration: 2 uM) | TEAD-luciferase reporter activity (compound concentration: 10 uM)
CC(C)C[C@H](NC(=O)CNC(=O)[C@H](Cc1ccc(O)cc1)NC(=O)[C@H](CO)NC(=O)[C@H](Cc1c[nH]c2ccccc12)NC(=O)[C@H](Cc1c[nH]cn1)NC(=O)[C@@H]1CCC(=O)N1)C(=O)N[C@@H](CCCNC(=N)N)C(=O)N1CCC[C@H]1C(=O)NCC(N)=O [Gonadorelin] | inactive: -2.14 | inactive: 1.04 | active: 6.23
O=C(CCCN1CC=C(n2c(O)nc3ccccc32)CC1)c1ccc(F)cc1 [droperidol, Anesta] |  | inactive: -1.51 | 
